Measured values reported in patent US6399606B1, “Neuroprotective agents and methods related thereto” (Nippon Kayaku Co., Ltd., priority 1999, dated 2002).
Some entries share one result that the patent states for a list of compounds.

test system: Differentiated PC12 (rat pheochromocytoma) cells; assay: PC12 cell protection against taxol assay (LDH release); assay type: cell-based; conditions: 10 μM compound, 19 h pre-treatment, taxol 0.24 mM, LDH 72 hours after taxol, 100% = 30 mM NK5805

Row | SMILES | protection level (% survival by LDH release, relative to 30 mM NK5805)
1 | COC(=O)[C@H](CSCC(CC(=O)O)C(=O)c1cccnc1)NC(=O)C=C(C)C (stereo partly shown) [compound 24] | at least 50%
2 | CC(=O)NCCC(=O)NCCSCC(CC(=O)O)C(=O)c1cccnc1 (stereo not shown) [compound 58] | at least 50%
3 | COC(=O)[C@H](CSCC(CC(=O)O)C(=O)c1cccnc1)NC(=O)c1ccc(C(F)(F)F)cc1 (stereo partly shown) [compound 81] | at least 50%
4 | COC(=O)[C@H](CSCC(CC(=O)O)C(=O)c1cccnc1)NC(=O)Nc1ccccc1 (stereo partly shown) [compound 90] | at least 50%
5 | COC(=O)[C@H](CSCC(CC(=O)O)C(=O)c1cccnc1)NC(=O)Nc1ccccc1Cl (stereo partly shown) [compound 91] | at least 50%
6 | COC(=O)[C@H](CSCC(CC(=O)O)C(=O)c1cccnc1)NC(=O)Nc1cc(Cl)cc(Cl)c1 (stereo partly shown) [compound 92] | at least 50%
7 | COC(=O)[C@H](CSCC(CC(=O)O)C(=O)c1cccnc1)NC(=O)Nc1ccccc1F (stereo partly shown) [compound 95] | at least 50%
8 | COC(=O)[C@H](CSCC(CC(=O)O)C(=O)c1cccnc1)NC(=O)Nc1ccc(F)cc1 (stereo partly shown) [compound 97] | at least 50%
9 | COC(=O)[C@H](CSCC(CC(=O)O)C(=O)c1cccnc1)NC(=O)Nc1cc(F)ccc1F (stereo partly shown) [compound 98] | at least 50%
10 | COC(=O)[C@H](CSCC(CC(=O)O)C(=O)c1cccnc1)NC(=O)Nc1ccccc1C(F)(F)F (stereo partly shown) [compound 99] | at least 50%
11 | COC(=O)[C@H](CSCC(CC(=O)O)C(=O)c1cccnc1)NC(=O)Nc1cccc(C(F)(F)F)c1 (stereo partly shown) [compound 100] | at least 50%
12 | COC(=O)[C@H](CSCC(CC(=O)O)C(=O)c1cccnc1)NC(=O)Nc1cc(C(F)(F)F)cc(C(F)(F)F)c1 (stereo partly shown) [compound 101] | at least 50%
13 | COC(=O)[C@H](CSCC(CC(=O)O)C(=O)c1cccnc1)NC(=O)Nc1ccc(Cl)c(C(F)(F)F)c1 (stereo partly shown) [compound 102] | at least 50%
14 | COC(=O)[C@H](CSCC(CC(=O)O)C(=O)c1cccnc1)NC(=O)Nc1cccc(Cl)c1C (stereo partly shown) [compound 105] | at least 50%
15 | COC(=O)[C@H](CSCC(CC(=O)O)C(=O)c1cccnc1)NC(=O)Nc1ccc(Cl)cc1C (stereo partly shown) [compound 106] | at least 50%
16 | COC(=O)[C@H](CSCC(CC(=O)O)C(=O)c1cccnc1)NC(=O)Nc1ccccc1C (stereo partly shown) [compound 110] | at least 50%
17 | COC(=O)[C@H](CSCC(CC(=O)O)C(=O)c1cccnc1)NC(=O)Nc1cccc(C)c1 (stereo partly shown) [compound 111] | at least 50%
18 | COC(=O)[C@H](CSCC(CC(=O)O)C(=O)c1cccnc1)NC(=O)Nc1ccc(C)cc1 (stereo partly shown) [compound 112] | at least 50%
19 | COC(=O)[C@H](CSCC(CC(=O)O)C(=O)c1cccnc1)NC(=O)Nc1cc(C)cc(C)c1 (stereo partly shown) [compound 113] | at least 50%
20 | COC(=O)[C@H](CSCC(CC(=O)O)C(=O)c1cccnc1)NC(=O)Nc1ccccc1OC (stereo partly shown) [compound 115] | at least 50%
21 | COC(=O)[C@H](CSCC(CC(=O)O)C(=O)c1cccnc1)NC(=O)Nc1cc(OC)c(OC)c(OC)c1 (stereo partly shown) [compound 116] | at least 50%

Row | SMILES | protection level (% survival by LDH release, relative to 30 mM NK5805)
22 | COC(=O)[C@H](CSCC(CC(=O)O)C(=O)c1cccnc1)NC(=O)Nc1ccc(OC(F)(F)F)cc1 (stereo partly shown) [compound 117] | at least 50%
23 | COC(=O)[C@H](CSCC(CC(=O)O)C(=O)c1cccnc1)NC(=O)NCc1ccccc1Cl (stereo partly shown) [compound 121] | at least 50%
24 | COC(=O)[C@H](CSCC(CC(=O)O)C(=O)c1cccnc1)NC(=O)NCc1ccc(F)cc1 (stereo partly shown) [compound 122] | at least 50%
25 | COC(=O)[C@H](CSCC(CC(=O)O)C(=O)c1cccnc1)NC(=O)NCc1ccc(Cl)c(Cl)c1 (stereo partly shown) [compound 123] | at least 50%
26 | COC(=O)[C@H](CSCC(CC(=O)O)C(=O)c1cccnc1)NC(=O)Nc1ccc(Cl)cc1C(F)(F)F (stereo partly shown) [compound 125] | at least 50%
27 | CCc1ccc(NC(=O)N[C@@H](CSCC(CC(=O)O)C(=O)c2cccnc2)C(=O)OC)cc1 (stereo partly shown) [compound 126] | at least 50%
28 | CCOc1ccc(NC(=O)N[C@@H](CSCC(CC(=O)O)C(=O)c2cccnc2)C(=O)OC)cc1 (stereo partly shown) [compound 127] | at least 50%
29 | COC(=O)[C@H](CSCC(CC(=O)O)C(=O)c1cccnc1)NC(=O)Nc1cccc(Cl)c1 (stereo partly shown) [compound 128] | at least 50%
30 | C=CCNC(=O)N[C@@H](CSCC(CC(=O)O)C(=O)c1cccnc1)C(=O)OC (stereo partly shown) [compound 136] | at least 50%
31 | COC(=O)CC(CSCCNC(=O)C(F)(F)F)C(=O)c1cccnc1 (stereo not shown) [compound 170] | at least 50%
32 | CCCNC(=O)N[C@@H](CSCC(CC(=O)OC)C(=O)c1cccnc1)C(=O)OC (stereo partly shown) [compound 174] | at least 50%
33 | COC(=O)CC(CSC[C@H](NC(=O)NC(C)C)C(=O)OC)C(=O)c1cccnc1 (stereo partly shown) [compound 177] | at least 50%
34 | COC(=O)CC(CSC[C@H](NC(=O)NC1CCCCC1)C(=O)OC)C(=O)c1cccnc1 (stereo partly shown) [compound 178] | at least 50%
35 | COC(=O)CC(CSC[C@H](NC(=O)OCc1ccccc1)C(=O)OC)C(=O)c1cccnc1 (stereo partly shown) [compound 179] | at least 50%
36 | COC(=O)CC(CSC[C@H](NC(=O)NC(=O)c1ccccc1)C(=O)OC)C(=O)c1cccnc1 (stereo partly shown) [compound 180] | at least 50%
37 | COC(=O)CC(CSCC(NC(=O)Nc1cccc(OC)c1)C(=O)OC)C(=O)c1cccnc1 (stereo not shown) [compound 181] | at least 50%
38 | COC(=O)CC(CSCC(NC(=O)Oc1ccc(Cl)cc1)C(=O)OC)C(=O)c1cccnc1 (stereo not shown) [compound 182] | at least 50%
39 | COC(=O)CC(CSCC(NC(=O)Oc1ccc(Br)cc1)C(=O)OC)C(=O)c1cccnc1 (stereo not shown) [compound 183] | at least 50%
40 | CCCOC(=O)NC(CSCC(CC(=O)OC)C(=O)c1cccnc1)C(=O)OC (stereo not shown) [compound 184] | at least 50%
41 | CCCCNCCSCC(CC(=O)OCC)C(=O)c1cccnc1 (stereo not shown) [compound 195] | at least 50%
42 | CCCOC(=O)CC(CSCCNC(C)=O)C(=O)c1cccnc1 (stereo not shown) [compound 198] | at least 50%

Row | SMILES | protection level (% survival by LDH release, relative to 30 mM NK5805)
43 | CCOC(=O)CC(CSCC(NC(C)=O)C(=O)OCC)C(=O)c1cccnc1 (stereo not shown) [compound 202] | at least 50%
44 | CCOC(=O)CC(CSCCN(C(C)=O)C1CCCCC1)C(=O)c1cccnc1 (stereo not shown) [compound 204] | at least 50%
45 | COC(=O)C(CSCC(CC(=O)N(C)C)C(=O)c1cccnc1)NC(C)=O (stereo not shown) [compound 205] | at least 50%
46 | COC(=O)C(CSCC(CC(=O)N1CCCCC1)C(=O)c1cccnc1)NC(C)=O (stereo not shown) [compound 207] | at least 50%
47 | CC(=O)NCCSCC(CC(=O)OCCc1cccs1)C(=O)c1cccnc1 (stereo not shown) [compound 208] | at least 50%
48 | CCOC(=O)CC(CSCCN(C1CCCCC1)S(C)(=O)=O)C(=O)c1cccnc1 (stereo not shown) [compound 214] | at least 50%
49 | CCOC(=O)CC(CSCCN(C(=O)C(=O)OC)C1CCCCC1)C(=O)c1cccnc1 (stereo not shown) [compound 215] | at least 50%
50 | CCOC(=O)CC(CSCCN(C(=O)c1cc(F)cc(F)c1)C1CCCCC1)C(=O)c1cccnc1 (stereo not shown) [compound 216] | at least 50%
51 | CCOC(=O)CC(CSCCN(CC(=O)OCC)C1CCCCC1)C(=O)c1cccnc1 (stereo not shown) [compound 217] | at least 50%
52 | CC(=O)NCCSCC(CC(=O)NC1CCCCC1)C(=O)c1cccnc1 (stereo not shown) [compound 219] | at least 50%
53 | CCCCCCNC(=O)N(CCSCC(CC(=O)OCC)C(=O)c1cccnc1)C1CCCCC1 (stereo not shown) [compound 220] | at least 50%
54 | CCOC(=O)CC(CSCCN(C(=O)Nc1ccccc1OC)C1CCCCC1)C(=O)c1cccnc1 (stereo not shown) [compound 221] | at least 50%
55 | CCOC(=O)CC(CSCCN(C(=O)Oc1ccc(Cl)cc1)C1CCCCC1)C(=O)c1cccnc1 (stereo not shown) [compound 222] | at least 50%
56 | COC(=O)CC(CSCC(NC(=O)OC(C)C)C(=O)OC)C(=O)c1cccnc1 (stereo not shown) [compound 224] | at least 50%
57 | C=CCOC(=O)NC(CSCC(CC(=O)OC)C(=O)c1cccnc1)C(=O)OC (stereo not shown) [compound 225] | at least 50%
58 | COC(=O)CC(CSCC(NC(=O)Nc1cc(C)cc(C)c1)C(=O)OC)C(=O)c1cccnc1 (stereo not shown) [compound 240] | at least 50%
59 | COC(=O)CC(CSCC(NC(=O)NCc1ccc(C)cc1)C(=O)OC)C(=O)c1cccnc1 (stereo not shown) [compound 244] | at least 50%
60 | COC(=O)CC(CSCC(NC(=O)NCc1ccc(F)cc1)C(=O)OC)C(=O)c1cccnc1 (stereo not shown) [compound 246] | at least 50%
61 | COC(=O)CC(CSCC(NC(=O)Nc1cccc(Cl)c1)C(=O)OC)C(=O)c1cccnc1 (stereo not shown) [compound 249] | at least 50%
